Patent US20180000798A1, “USE OF ACLIDINIUM” (Almirall, S.A., priority 2012, published 2018)
At least one structure is not confirmed: it was looked up by name or label, or the drawing left a doubt.

System: patients with moderate to severe COPD
Test: Phase III randomized, double-blind, placebo controlled crossover trial; physical activity measured with multisensor armband
Format: in vivo
Details: phase III results
Text: In a Phase III randomized, double-blind, placebo controlled, 2 period crossover trial, patients with moderate to severe COPD received a dose of aclidinium equivalent to a metered nominal dose of 400 micrograms of aclidinium bromide per inhalation twice-daily (in the morning, 9 am, and in the evening, […]) and placebo for two periods of 3 weeks, with a washout period of 2 weeks between treatment periods.
Patients were randomised to receive either a dose of aclidinium equivalent to a metered nominal dose of 400 micrograms of aclidinium bromide per inhalation twice-daily in the first period followed by placebo in the second period, or to receive placebo in the first period followed by aclidinium bromide 400 micrograms twice-daily in the second period. Both aclidinium bromide and placebo were administered with a Genuair® multidose dry powder inhaler.
Physical activity (as minutes of at least moderate activity per day and as average active energy expenditure expressed in Kcal) was measured in the last week of the treatment with aclidinium and placebo using a multisensor armband (SenseWear™ Pro Armband; BodyMedia, Pittsburgh, Pa., USA), was worn on the upper right over the triceps muscle, according to the method described in Watz B et al, Eur Respir J, 2009; 33: 262-272. […]

O=C(O[C@H]1C[N+]2(CCCOc3ccccc3)CCC1CC2)C(O)(c1cccs1)c1cccs1 [Aclidinium, 3(R)-(2-hydroxy-2,2-dithien-2-ylacetoxy)-1-(3-phenoxypropyl)-1-azoniabicyclo[2.2.2] octane]
Improvement in physical activity (overall conclusion): remarkable improvement in physical activity
